{"source": "the supplement of paper PMC7238544", "note": "Where a name gives a salt, the structure may show the parent alone. ± gives the standard deviation of the averaged measurements. The list shows a part of the results. The data scatter; read single values as rough."}
{"system": "hAMSC donor 2", "assay": "transgenic luciferase activity (RLU/mg protein) fold change vs vehicle control (ratio); hAMSC are human adipose-derived mesenchymal stem cells given an EGFP-luciferase plasmid by lipofection; higher = more transgene expression", "settings": "priming compound concentration 0.2 µM"}
{"smiles": "O=C1NC(=O)C(c2ccccc2)(c2ccccc2)N1", "note": "[Dilantin]", "transgenic luciferase activity": "0.794 ± 0.16"}
{"smiles": "CC(C)C[C@H](NC(=O)[C@@H](COC(C)(C)C)NC(=O)[C@H](Cc1ccc(O)cc1)NC(=O)[C@H](CO)NC(=O)[C@H](Cc1c[nH]c2ccccc12)NC(=O)[C@H](Cc1cnc[nH]1)NC(=O)[C@@H]1CCC(=O)N1)C(=O)N[C@@H](CCCNC(=N)N)C(=O)N1CCC[C@H]1C(=O)NNC(N)=O", "note": "[Goserelin acetate]", "transgenic luciferase activity": "0.923 ± 0.19"}
{"smiles": "O=C1CN(/N=C/c2ccc(-c3ccc([N+](=O)[O-])cc3)o2)C(=O)N1", "note": "[Dantrolene sodium]", "transgenic luciferase activity": "0.664 ± 0.053"}
{"smiles": "CC[C@@H](CO)NCCN[C@@H](CC)CO", "note": "[Ethambutol]", "transgenic luciferase activity": "0.846 ± 0.27"}
{"smiles": "O=c1c(-c2ccccc2)c1-c1ccccc1", "note": "[Diphenylcyclopropenone]", "transgenic luciferase activity": "0.663 ± 0.27"}
{"smiles": "CC(C)(C(=O)c1cccnc1)c1cccnc1", "note": "[Metyrapone]", "transgenic luciferase activity": "0.836 ± 0.15"}
{"smiles": "COc1c(N2CCNC(C)C2)c(F)cc2c(=O)c(C(=O)O)cn(C3CC3)c12", "note": "(stereo not given) [Gatifloxacin]", "transgenic luciferase activity": "1.19 ± 0.69"}
{"smiles": "Cc1cnc(C(=O)NCCc2ccc(S(=O)(=O)NC(=O)NC3CCCCC3)cc2)cn1", "note": "[Glipizide]", "transgenic luciferase activity": "1.05 ± 0.37"}
{"smiles": "Clc1ccc(CO/N=C(\\Cn2ccnc2)c2ccc(Cl)cc2Cl)c(Cl)c1", "note": "[Oxiconazole nitrate]", "transgenic luciferase activity": "0.803 ± 0.14"}
{"smiles": "C=C1/C(=C\\C=C2/CCC[C@]3(C)[C@@H]([C@H](C)CCCC(C)(C)O)CC[C@@H]23)C[C@@H](O)C[C@@H]1O", "note": "[Calcitriol]", "transgenic luciferase activity": "1.67 ± 0.093"}
{"smiles": "C#C[C@]1(O)CC[C@H]2[C@@H]3CCc4cc(OC)ccc4[C@H]3CC[C@@]21C", "note": "[Mestranol]", "transgenic luciferase activity": "0.7 ± 0.25"}
{"smiles": "Nc1ccn([C@@H]2O[C@H](CO)[C@@H](O)[C@@H]2O)c(=O)n1", "note": "[Cytarabine]", "transgenic luciferase activity": "0.933 ± 0.13"}
{"smiles": "COc1cccc2c1C(=O)c1c(O)c3c(c(O)c1C2=O)C[C@@](O)(C(C)=O)C[C@@H]3O[C@H]1C[C@H](N)[C@H](O)[C@H](C)O1", "note": "[Daunorubicin hydrochloride]", "transgenic luciferase activity": "3.93 ± 0.26"}
{"smiles": "CC/C(=C(\\c1ccccc1)c1ccc(OCCN(C)C)cc1)c1ccccc1", "note": "[Tamoxifen]", "transgenic luciferase activity": "0.802 ± 0.16"}
{"smiles": "COc1ccc(CN2CCN(C(c3ccc(F)cc3)c3ccc(F)cc3)CC2)c(OC)c1OC", "note": "[Lomerizine dihydrochloride]", "transgenic luciferase activity": "0.488 ± 0.088"}
{"smiles": "CC(C)NCC(O)COc1cccc2ccccc12", "note": "(stereo not given) [Propranolol hydrochloride]", "transgenic luciferase activity": "0.763 ± 0.27"}
{"smiles": "C=C[C@H]1CN2CC[C@H]1C[C@@H]2[C@@H](O)c1ccnc2ccc(OC)cc12", "note": "[Quinidine]", "transgenic luciferase activity": "0.795 ± 0.036"}
{"smiles": "CC(C)NCC(O)c1ccc(O)c(O)c1", "note": "(stereo not given) [Isoproterenol hydrochloride]", "transgenic luciferase activity": "0.6 ± 0.32"}
{"smiles": "NC(=O)c1cccnc1", "note": "[Nicotinamide]", "transgenic luciferase activity": "0.62 ± 0.087"}
{"smiles": "CC(=O)Oc1ccccc1C(=O)Nc1ncc([N+](=O)[O-])s1", "note": "[Nitazoxanide]", "transgenic luciferase activity": "1.06 ± 0.33"}
{"smiles": "CC(C)(C(=O)O)c1ccc(C(O)CCCN2CCC(C(O)(c3ccccc3)c3ccccc3)CC2)cc1", "note": "(stereo not given) [Fexofenadine hydrochloride]", "transgenic luciferase activity": "0.713 ± 0.14"}
{"smiles": "CCN1CCN(c2cc3c(cc2F)c(=O)c(C(=O)O)cn3C2CC2)CC1", "note": "[Enrofloxacin]", "transgenic luciferase activity": "0.669 ± 0.15"}
{"smiles": "CN(C)CCC=C1c2ccccc2COc2ccccc21", "note": "[Doxepin hydrochloride]", "transgenic luciferase activity": "0.746 ± 0.057"}
{"smiles": "Nc1nc2ccc(OC(F)(F)F)cc2s1", "note": "[Riluzole hydrochloride]", "transgenic luciferase activity": "0.893 ± 0.099"}
{"smiles": "NC(N)=Nc1nc(CSCC/C(N)=N/S(N)(=O)=O)cs1", "note": "[Famotidine]", "transgenic luciferase activity": "0.912 ± 0.062"}
